Data: the supplement of paper PMC11732987, “Enantioselective OTUD7B fragment discovery through chemoproteomics screening and high-throughput optimisation” (Communications Chemistry, 2025)
The other results are listed elsewhere or left out. The data scatter; read single values as rough.

Chains of the proteins cited; added tags and fusions are not shown. A change or cut given only in a name is not applied to a line headed by its entry. A line that says so, or that is headed by a name, gives the form on record, which may keep a tag or linker. Residues count along the entry.
UniProt P42695: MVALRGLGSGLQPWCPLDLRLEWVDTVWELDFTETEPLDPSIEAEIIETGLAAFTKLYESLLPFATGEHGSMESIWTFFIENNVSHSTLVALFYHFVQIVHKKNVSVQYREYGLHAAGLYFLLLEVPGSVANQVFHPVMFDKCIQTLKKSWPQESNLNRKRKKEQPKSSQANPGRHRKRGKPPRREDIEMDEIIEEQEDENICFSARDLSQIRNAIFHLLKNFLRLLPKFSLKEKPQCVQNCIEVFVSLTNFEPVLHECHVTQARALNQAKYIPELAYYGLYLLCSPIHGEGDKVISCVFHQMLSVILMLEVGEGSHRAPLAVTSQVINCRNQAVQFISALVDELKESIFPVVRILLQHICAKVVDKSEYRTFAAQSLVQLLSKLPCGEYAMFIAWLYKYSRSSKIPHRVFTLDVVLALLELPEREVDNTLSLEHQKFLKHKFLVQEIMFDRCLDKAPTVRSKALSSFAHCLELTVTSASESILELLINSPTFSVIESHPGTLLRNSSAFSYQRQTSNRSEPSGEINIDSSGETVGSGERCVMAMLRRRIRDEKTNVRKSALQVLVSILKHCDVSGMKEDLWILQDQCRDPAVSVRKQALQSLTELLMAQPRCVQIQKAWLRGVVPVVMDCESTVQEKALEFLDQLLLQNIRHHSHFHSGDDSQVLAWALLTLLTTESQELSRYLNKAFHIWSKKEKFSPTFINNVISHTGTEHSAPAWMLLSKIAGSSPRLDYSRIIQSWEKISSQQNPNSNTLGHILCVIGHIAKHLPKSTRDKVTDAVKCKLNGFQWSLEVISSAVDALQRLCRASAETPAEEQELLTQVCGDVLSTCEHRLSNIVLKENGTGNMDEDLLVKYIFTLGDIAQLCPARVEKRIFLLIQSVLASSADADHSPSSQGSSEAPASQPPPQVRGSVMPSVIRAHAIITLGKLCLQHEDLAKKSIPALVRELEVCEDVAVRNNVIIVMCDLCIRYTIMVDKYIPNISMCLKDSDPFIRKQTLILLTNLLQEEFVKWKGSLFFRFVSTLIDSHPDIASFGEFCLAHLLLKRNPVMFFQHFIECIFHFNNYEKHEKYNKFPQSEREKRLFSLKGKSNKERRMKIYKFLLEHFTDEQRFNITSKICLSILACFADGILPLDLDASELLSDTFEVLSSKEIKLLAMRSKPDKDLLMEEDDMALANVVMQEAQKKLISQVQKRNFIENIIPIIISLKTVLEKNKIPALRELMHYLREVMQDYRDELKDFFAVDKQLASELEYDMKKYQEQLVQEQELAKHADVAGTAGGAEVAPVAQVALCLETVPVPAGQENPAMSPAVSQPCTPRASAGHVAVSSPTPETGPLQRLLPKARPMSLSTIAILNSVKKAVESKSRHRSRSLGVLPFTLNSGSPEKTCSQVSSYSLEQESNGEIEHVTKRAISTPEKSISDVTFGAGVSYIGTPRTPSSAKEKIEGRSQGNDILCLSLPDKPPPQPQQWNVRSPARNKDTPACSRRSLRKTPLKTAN
UniProt Q92597, 20-53: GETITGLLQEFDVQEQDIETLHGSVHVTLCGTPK
UniProt Q86XI2: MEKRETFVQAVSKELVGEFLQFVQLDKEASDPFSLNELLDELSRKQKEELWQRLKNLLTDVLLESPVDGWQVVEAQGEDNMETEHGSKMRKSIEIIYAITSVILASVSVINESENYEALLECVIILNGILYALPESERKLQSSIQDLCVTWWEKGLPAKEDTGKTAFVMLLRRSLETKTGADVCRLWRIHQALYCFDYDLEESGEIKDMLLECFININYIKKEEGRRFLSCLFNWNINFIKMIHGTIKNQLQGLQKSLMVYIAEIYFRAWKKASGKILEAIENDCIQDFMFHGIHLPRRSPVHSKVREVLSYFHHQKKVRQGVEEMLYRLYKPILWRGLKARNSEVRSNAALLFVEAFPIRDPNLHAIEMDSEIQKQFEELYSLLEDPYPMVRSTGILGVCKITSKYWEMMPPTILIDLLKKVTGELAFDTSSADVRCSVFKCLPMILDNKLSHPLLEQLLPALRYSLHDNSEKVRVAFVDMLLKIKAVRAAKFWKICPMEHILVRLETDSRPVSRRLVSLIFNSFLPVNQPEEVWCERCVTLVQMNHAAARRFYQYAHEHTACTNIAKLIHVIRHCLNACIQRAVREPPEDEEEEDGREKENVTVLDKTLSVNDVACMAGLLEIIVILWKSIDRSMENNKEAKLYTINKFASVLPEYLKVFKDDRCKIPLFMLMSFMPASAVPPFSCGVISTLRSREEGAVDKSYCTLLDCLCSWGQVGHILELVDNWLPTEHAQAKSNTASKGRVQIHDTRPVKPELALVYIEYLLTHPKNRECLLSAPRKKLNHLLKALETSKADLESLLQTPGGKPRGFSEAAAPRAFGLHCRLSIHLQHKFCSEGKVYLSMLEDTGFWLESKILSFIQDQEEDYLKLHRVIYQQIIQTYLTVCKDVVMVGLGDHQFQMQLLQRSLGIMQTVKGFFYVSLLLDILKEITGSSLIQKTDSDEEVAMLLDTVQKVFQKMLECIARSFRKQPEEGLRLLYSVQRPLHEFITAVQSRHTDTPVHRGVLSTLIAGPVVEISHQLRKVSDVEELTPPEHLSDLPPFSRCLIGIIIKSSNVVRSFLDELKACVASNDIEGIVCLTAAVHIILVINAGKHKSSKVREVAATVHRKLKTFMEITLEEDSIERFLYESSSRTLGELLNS
UniProt O75380: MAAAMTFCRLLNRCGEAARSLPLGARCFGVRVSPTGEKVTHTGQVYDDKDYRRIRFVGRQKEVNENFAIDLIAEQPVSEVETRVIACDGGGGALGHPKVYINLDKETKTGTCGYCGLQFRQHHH
UniProt Q9P032: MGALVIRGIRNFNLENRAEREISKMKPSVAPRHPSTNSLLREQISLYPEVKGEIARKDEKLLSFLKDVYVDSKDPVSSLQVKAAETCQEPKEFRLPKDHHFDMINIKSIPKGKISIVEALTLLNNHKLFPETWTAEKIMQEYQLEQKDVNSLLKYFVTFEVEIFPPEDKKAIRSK
UniProt O95299, whole entry, looked up: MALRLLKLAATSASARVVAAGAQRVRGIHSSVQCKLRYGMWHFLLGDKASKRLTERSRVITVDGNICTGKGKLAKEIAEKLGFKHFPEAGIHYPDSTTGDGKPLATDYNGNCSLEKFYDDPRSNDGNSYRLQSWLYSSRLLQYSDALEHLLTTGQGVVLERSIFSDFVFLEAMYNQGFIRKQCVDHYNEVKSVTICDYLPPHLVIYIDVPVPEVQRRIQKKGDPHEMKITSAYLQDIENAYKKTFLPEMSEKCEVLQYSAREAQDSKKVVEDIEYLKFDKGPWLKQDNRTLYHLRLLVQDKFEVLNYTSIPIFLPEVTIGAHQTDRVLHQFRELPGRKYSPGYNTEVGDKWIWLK
UniProt Q6ZNB6: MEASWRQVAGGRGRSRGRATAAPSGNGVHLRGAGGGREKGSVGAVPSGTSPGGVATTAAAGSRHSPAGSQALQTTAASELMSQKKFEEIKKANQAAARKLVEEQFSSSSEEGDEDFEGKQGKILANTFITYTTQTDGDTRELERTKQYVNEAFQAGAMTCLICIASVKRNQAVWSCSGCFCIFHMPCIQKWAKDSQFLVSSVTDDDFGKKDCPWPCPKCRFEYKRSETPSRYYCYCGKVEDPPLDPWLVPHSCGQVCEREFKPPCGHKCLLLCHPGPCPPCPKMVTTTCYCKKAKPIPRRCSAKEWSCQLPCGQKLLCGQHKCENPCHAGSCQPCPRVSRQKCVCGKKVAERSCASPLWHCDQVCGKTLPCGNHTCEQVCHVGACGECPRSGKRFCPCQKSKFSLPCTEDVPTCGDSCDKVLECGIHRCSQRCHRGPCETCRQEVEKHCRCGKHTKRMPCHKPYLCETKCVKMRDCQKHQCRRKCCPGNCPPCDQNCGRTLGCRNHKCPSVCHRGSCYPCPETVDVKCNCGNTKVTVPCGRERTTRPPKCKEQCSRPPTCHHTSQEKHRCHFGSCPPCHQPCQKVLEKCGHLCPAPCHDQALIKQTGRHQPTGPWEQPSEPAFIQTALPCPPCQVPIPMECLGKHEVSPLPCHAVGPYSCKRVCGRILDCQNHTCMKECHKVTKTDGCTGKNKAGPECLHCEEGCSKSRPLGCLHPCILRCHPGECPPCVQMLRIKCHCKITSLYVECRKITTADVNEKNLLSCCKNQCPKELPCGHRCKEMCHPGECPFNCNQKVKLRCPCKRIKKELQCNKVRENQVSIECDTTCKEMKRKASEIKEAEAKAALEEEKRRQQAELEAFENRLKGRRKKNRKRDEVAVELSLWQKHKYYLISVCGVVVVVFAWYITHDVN
UniProt Q8TD19: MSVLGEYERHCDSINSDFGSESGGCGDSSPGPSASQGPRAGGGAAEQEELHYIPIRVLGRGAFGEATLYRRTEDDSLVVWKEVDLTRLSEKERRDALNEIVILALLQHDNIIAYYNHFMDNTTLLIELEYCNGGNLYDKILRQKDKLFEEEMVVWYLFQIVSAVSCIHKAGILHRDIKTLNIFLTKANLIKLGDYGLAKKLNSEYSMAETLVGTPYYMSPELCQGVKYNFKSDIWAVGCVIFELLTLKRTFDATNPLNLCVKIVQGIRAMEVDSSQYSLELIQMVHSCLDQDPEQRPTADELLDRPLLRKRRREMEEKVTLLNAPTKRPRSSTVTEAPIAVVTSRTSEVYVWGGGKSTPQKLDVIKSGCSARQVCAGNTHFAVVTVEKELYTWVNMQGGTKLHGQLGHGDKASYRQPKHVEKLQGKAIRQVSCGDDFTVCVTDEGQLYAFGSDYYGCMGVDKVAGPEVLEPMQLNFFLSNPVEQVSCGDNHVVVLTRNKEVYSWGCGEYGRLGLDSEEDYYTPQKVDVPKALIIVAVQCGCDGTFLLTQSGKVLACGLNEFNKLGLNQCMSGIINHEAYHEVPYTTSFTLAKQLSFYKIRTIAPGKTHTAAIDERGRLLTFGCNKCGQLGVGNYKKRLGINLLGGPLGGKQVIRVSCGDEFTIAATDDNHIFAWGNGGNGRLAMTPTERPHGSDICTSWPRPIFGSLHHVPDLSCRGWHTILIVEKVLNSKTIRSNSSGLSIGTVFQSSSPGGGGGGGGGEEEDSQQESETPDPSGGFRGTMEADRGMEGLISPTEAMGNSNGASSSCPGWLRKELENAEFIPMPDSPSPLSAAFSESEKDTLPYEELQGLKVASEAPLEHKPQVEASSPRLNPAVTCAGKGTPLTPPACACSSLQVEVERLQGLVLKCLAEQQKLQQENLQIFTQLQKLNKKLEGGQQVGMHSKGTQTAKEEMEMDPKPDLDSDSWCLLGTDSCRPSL
UniProt P51970, whole entry, looked up: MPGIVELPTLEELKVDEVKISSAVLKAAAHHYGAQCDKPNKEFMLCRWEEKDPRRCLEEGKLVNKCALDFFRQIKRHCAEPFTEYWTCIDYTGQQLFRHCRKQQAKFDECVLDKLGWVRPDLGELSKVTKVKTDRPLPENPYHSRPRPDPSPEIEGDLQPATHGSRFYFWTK
UniProt Q9H6R4: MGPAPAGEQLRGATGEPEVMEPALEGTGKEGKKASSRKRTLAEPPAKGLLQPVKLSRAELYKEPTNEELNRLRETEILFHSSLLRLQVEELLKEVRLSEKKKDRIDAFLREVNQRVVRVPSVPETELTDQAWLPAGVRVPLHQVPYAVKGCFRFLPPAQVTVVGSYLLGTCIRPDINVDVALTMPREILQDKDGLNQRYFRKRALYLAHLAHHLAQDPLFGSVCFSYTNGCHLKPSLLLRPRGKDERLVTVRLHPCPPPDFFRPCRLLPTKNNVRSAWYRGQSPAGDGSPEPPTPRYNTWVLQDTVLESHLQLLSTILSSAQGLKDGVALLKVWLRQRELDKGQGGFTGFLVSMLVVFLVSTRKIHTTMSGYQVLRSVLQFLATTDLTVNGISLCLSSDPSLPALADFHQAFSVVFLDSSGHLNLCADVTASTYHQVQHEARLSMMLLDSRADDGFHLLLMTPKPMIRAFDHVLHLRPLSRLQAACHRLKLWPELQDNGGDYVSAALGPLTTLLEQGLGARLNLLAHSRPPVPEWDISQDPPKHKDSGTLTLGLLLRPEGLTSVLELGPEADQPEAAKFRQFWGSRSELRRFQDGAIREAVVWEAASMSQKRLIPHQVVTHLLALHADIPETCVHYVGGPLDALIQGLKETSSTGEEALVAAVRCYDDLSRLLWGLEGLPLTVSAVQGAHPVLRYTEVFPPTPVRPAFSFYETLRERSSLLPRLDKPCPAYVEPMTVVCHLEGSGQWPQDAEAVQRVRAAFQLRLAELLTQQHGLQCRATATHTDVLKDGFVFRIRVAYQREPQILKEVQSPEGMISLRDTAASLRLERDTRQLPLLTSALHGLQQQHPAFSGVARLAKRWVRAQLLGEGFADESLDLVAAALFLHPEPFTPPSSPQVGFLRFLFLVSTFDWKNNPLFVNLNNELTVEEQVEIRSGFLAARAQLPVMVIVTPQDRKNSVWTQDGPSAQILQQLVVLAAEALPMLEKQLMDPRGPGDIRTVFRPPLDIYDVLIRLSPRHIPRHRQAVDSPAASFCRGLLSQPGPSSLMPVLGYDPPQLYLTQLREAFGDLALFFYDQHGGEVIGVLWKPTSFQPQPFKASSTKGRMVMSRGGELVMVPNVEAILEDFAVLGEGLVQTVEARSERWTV
NDRG2_(C255,C255,C274,C274), as listed by the source: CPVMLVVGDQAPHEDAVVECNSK

Compound: ClCC(=O)N[C@H]1CCCc2ccccc12
Assay: log2 mean competition ratio of IA-DTB cysteine labelling (DMSO/compound) (log2 ratio); higher = stronger cysteine engagement by compound
Conditions: 50 µM; treatment time: 4 h; cell line lysate: HEK293T
Experimental: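 IA-DTB competitive cysteine chemoproteomics in HEK293T RIPA lysate. Lysates were treated with compound 29 or 30 at 50 or 200 µM for 4 h, then IA-DTB (500 µM, 1 h), trypsin-digested, NeutrAvidin-enriched and analysed by diaPASEF. Competition ratio = intensity DMSO / intensity compound (n=4 treated, n=64 DMSO); binding: mean log2 CR ≥ 1 and p ≤ 0.05 plus QC filters. Target is the cysteine site.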

| Target | log2 mean competition ratio |
| --- | --- |
| NF1 C1032 (UniProt P21359) | 0.00729 |
| NCAPD3 C1484 (UniProt P42695) | -0.0137 |
| NDRG1 C49 (UniProt Q92597) | 0.961 |
| NCAPG2 C184 (UniProt Q86XI2) | -0.0543 |
| NDUFS6 C87 (UniProt O75380) | -0.176 |
| NDUFAF4 C87 (UniProt Q9P032) | -0.134 |
| NCAPD3 C453 (UniProt P42695) | 0.142 |
| NIPBL C1889 (UniProt Q6KC79) | -0.0894 |
| NBAS C406 (UniProt A2RRP1) | -0.0292 |
| NDUFA10 C183 (UniProt O95299) | 0.0576 |
| NCAPD3 C330 (UniProt P42695) | -0.388 |
| NDRG2_(C255,C255,C274,C274) | 0.222 |
| NFXL1 C539 (UniProt Q6ZNB6) | -0.262 |
| NAT10 C517 (UniProt Q9H0A0) | 0.245 |
| NCKIPSD C700 (UniProt Q9NZQ3) | -0.0848 |
| NAV2 C1288 (UniProt Q8IVL1) | -0.207 |
| NEK9 C623 (UniProt Q8TD19) | 0.676 |
| NDUFA8 C110 (UniProt P51970) | -0.183 |
| NECAP1 C162 (UniProt Q8NC96) | 0.0889 |
| NOL6 C1034 (UniProt Q9H6R4) | 0.221 |
| NDUFV1 C142 | -0.205 |
| NEFL C322 | 0.0968 |
| NCAPD3 C952 (UniProt P42695) | -0.381 |
| NCOA3 C769 (UniProt Q9Y6Q9) | -0.124 |
| NDUFA11 C18 (UniProt Q86Y39) | 0.0527 |
| NCAPH2 C230 (UniProt Q6IBW4) | -0.0933 |
| NBPF19;NBPF26;NBPF20;NBPF9;NBPF1;NBPF8;NBPF12;NBPF14;NBPF10 C589(C833)(C1077)(C1321)(C1565)(C1809)(C2053)(C2297)(C2541)(C2785)(C3029)(C3273)(C3517)(C3761);(C820);(C245)(C489)(C733)(C977)(C1221)(C1709)(C1953)(C2197)(C2441)(C2685)(C2929)(C3173)(C3417)(C3661)(C3905)(C4393)(C4562)(C4881)(C5125);(C1029);(C1132);(C825);(C1131)(C1375);(C520)(C839);(C860)(C1104)(C1348)(C1592)(C1836)(C2080)(C2324)(C2568)(C2812)(C3056)(C3300)(C3544)(C3713) | -0.0236 |

Some values from the list.
In log2 mean competition ratio, NCAPD3 C330 (UniProt P42695) is listed with -0.388
In log2 mean competition ratio, NDUFV1 C142 is listed with -0.205
